A short description of this data set: Aggregation of J5 LPS vesicles. More on the design: species or system E. coli. Particulars: not shown.

In the case of “SP-A: Native surfactant protein A isolated from the alveolar wash of silica-pretreated rats”, the “Aggregation of E. coli J5 LPS” value was “inhibited the aggregation” and the “Established aggregation by J5 LPS vesicles” value is on record as “did not reverse established aggregation”.

The record behind these values is patent publication US7273847B2, “Peptides with antioxidant and antimicrobial properties” (priority 2000, dated 2007).
